Assay: general procedure: peptide synthesis; BOP/HOBt/DIPEA (conjugation)

DOX^14 -O-glt-Gln-Trp-Ala-Val-Gly-His-Leu.PSI.(CH2 --NH)Leu-NH2
conjugation yield (conjugation step): 45%
final purity (method not given) (conjugation step): 98%

2-pyrrolino-DOX^14 -O-glt-Gln-Trp-Ala-Val-Gly-His-Leu.PSI.(CH2 --NH)Leu-NH2
final purity (method not given) (late stage modification step): 98%
step yield (late stage modification step): 60%
